# Measured values taken from the supplement of paper PMC8728848.
# This is one part of the list.
# B1: CD4 (Rattus norvegicus), P05540 (protein)
# chain: MCRGFSFRHLLPLLLLQLSKLLVVTQGSTSITAYKSEGESAEFSFPLNLGEESLQGELRWKAEKAPSSQSWITFSLKNQKVSVQKSTSNPKFQLSETLPLTLQIPQVSLQFAGSGNLTLTLDRGILYQEVNLVVMKVTQPDSNTLTCEVMGPTSPKMRLILKQENQEARVSRQEKVIQVQAPEAGVWQCLLSEGEEVKMDSKIQVLSKGLNSGGGSGGGTGGGDLAPQMLRELQETNAALQDVRELLRQQVKEITFLKNTVMECDACGLDRNLPPLAPLGPHPETLVKVKDAEDQLGARVGYIELDLNSGKILESFRPEERFPMMSTFKVLLCGAVLSRIDAGQEQLGRRIHYSQNDLVEYSPVTEKHLTDGMTVRELCSAAITMSDNTAANLLLTTIGGPKELTAFLHNMGDHVTRLDRWEPELNEAIPNDERDTTMPVAMATTLRKLLTGELLTLASRQQLIDWMEADKVAGPLLRSALPAGWFIADKSGAGERGSRGIIAALGPDGKPSRIVVIYTTGSQATMDERNRQIAEIGASLIKHW
# Assays:
# Assay in all cases: glycan array binding signal (z-score within array); higher = stronger binding
# Settings in all cases: glycan notation: IUPAC condensed, linker removed
# [1] = target: GlcNAc(b1-2)Gal(b1-3)GalNAc
# In short: (§1)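 The binding signal is a Z-score computed within each array and averaged over linkers. Arrays of the same protein sequence at different concentrations or buffers were also averaged together. Data originate from 3228 arrays in the Consortium for Functional Glycomics database, kept only where the protein sequence was available.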
# [2] = target: GlcNAc(b1-2)Man(a1-3)[GlcNAc(b1-2)Man(a1-6)]Man(b1-4)GlcNAc(b1-4)GlcNAc
# In short: as §1
# [3] = target: GlcNAc(b1-2)Man(a1-3)[GlcNAc(b1-2)Man(a1-6)]Man(b1-4)GlcNAc(b1-4)[Fuc(a1-6)]GlcNAc
# In short: as §1
# [4] = target: GlcNAc(b1-2)Man(a1-3)[GlcNAc(b1-4)][GlcNAc(b1-2)Man(a1-6)]Man(b1-4)GlcNAc(b1-4)GlcNAc
# In short: as §1
# [5] = target: GlcNAc(b1-2)Man(a1-3)[GlcNAc(b1-4)][GlcNAc(b1-2)Man(a1-6)]Man(b1-4)GlcNAc(b1-4)[Fuc(a1-6)]GlcNAc
# In short: as §1
# [6] = target: GlcNAc(b1-2)[GlcNAc(b1-4)]Man(a1-3)[GlcNAc(b1-2)Man(a1-6)]Man(b1-4)GlcNAc(b1-4)GlcNAc
# In short: as §1
# [7] = target: GlcNAc(b1-2)[GlcNAc(b1-4)]Man(a1-3)[GlcNAc(b1-4)][GlcNAc(b1-2)Man(a1-6)]Man(b1-4)GlcNAc(b1-4)GlcNAc
# In short: as §1
# [8] = target: GlcNAc(b1-2)[GlcNAc(b1-4)]Man(a1-3)[GlcNAc(b1-4)][GlcNAc(b1-2)[GlcNAc(b1-6)]Man(a1-6)]Man(b1-4)GlcNAc(b1-4)GlcNAc
# In short: as §1
# [9] = target: GlcNAc(b1-2)[GlcNAc(b1-4)]Man(a1-3)[GlcNAc(b1-4)][GlcNAc(b1-2)[GlcNAc(b1-6)]Man(a1-6)]Man(b1-4)GlcNAc(b1-4)[Fuc(a1-6)]GlcNAc
# In short: as §1
# [10] = target: GlcNAc(b1-2)[GlcNAc(b1-6)]Man(a1-6)[GlcNAc(b1-2)Man(a1-3)]Man(b1-4)GlcNAc(b1-4)GlcNAc
# In short: as §1
# [11] = target: GlcNAc(b1-2)[GlcNAc(b1-6)]Man(a1-6)[GlcNAc(b1-2)Man(a1-3)]Man(b1-4)GlcNAc(b1-4)[Fuc(a1-6)]GlcNAc
# In short: as §1
# [12] = target: GlcNAc(b1-2)[GlcNAc(b1-6)]Man(a1-6)[GlcNAc(b1-4)][GlcNAc(b1-2)Man(a1-3)]Man(b1-4)GlcNAc(b1-4)GlcNAc
# In short: as §1
# [13] = target: GlcNAc(b1-3)Fuc
# In short: as §1
# [14] = target: GlcNAc(b1-3)Gal
# In short: as §1
# [15] = target: GlcNAc(b1-3)Gal(b1-3)GalNAc
# In short: as §1
# [16] = target: GlcNAc(b1-3)Gal(b1-4)Glc
# In short: as §1
# [17] = target: GlcNAc(b1-3)Gal(b1-4)GlcNAc
# In short: as §1
# [18] = target: GlcNAc(b1-3)Gal(b1-4)GlcNAc(b1-2)Man(a1-3)[GlcNAc(b1-3)Gal(b1-4)GlcNAc(b1-2)Man(a1-6)]Man(b1-4)GlcNAc(b1-4)GlcNAc
# In short: as §1
# [19] = target: GlcNAc(b1-3)Gal(b1-4)GlcNAc(b1-2)Man(a1-3)[GlcNAc(b1-3)Gal(b1-4)GlcNAc(b1-2)Man(a1-6)]Man(b1-4)GlcNAc(b1-4)[Fuc(a1-6)]GlcNAc
# In short: as §1
# [20] = target: GlcNAc(b1-3)Gal(b1-4)GlcNAc(b1-2)[GlcNAc(b1-3)Gal(b1-4)GlcNAc(b1-6)]Man(a1-6)[GlcNAc(b1-3)Gal(b1-4)GlcNAc(b1-2)Man(a1-3)]Man(b1-4)GlcNAc(b1-4)GlcNAc
# In short: as §1
# [21] = target: GlcNAc(b1-3)Gal(b1-4)GlcNAc(b1-3)Gal(b1-4)GlcNAc
# In short: as §1
# [22] = target: GlcNAc(b1-3)Gal(b1-4)GlcNAc(b1-3)Gal(b1-4)GlcNAc(b1-2)Man(a1-3)[GlcNAc(b1-3)Gal(b1-4)GlcNAc(b1-3)Gal(b1-4)GlcNAc(b1-2)Man(a1-6)]Man(b1-4)GlcNAc(b1-4)GlcNAc
# In short: as §1
# [23] = target: GlcNAc(b1-3)Gal(b1-4)GlcNAc(b1-3)Gal(b1-4)GlcNAc(b1-2)Man(a1-3)[GlcNAc(b1-3)Gal(b1-4)GlcNAc(b1-3)Gal(b1-4)GlcNAc(b1-2)Man(a1-6)]Man(b1-4)GlcNAc(b1-4)[Fuc(a1-6)]GlcNAc
# In short: as §1
# [24] = target: GlcNAc(b1-3)Gal(b1-4)GlcNAc(b1-3)Gal(b1-4)GlcNAc(b1-2)[GlcNAc(b1-3)Gal(b1-4)GlcNAc(b1-3)Gal(b1-4)GlcNAc(b1-6)]Man(a1-6)[GlcNAc(b1-3)Gal(b1-4)GlcNAc(b1-3)Gal(b1-4)GlcNAc(b1-2)Man(a1-3)]Man(b1-4)GlcNAc(b1-4)[Fuc(a1-6)]GlcNAc
# In short: as §1
# [25] = target: GlcNAc(b1-3)Gal(b1-4)GlcNAc(b1-3)Gal(b1-4)GlcNAc(b1-3)Gal(b1-4)GlcNAc(b1-2)Man(a1-3)[GlcNAc(b1-3)Gal(b1-4)GlcNAc(b1-3)Gal(b1-4)GlcNAc(b1-3)Gal(b1-4)GlcNAc(b1-2)Man(a1-6)]Man(b1-4)GlcNAc(b1-4)GlcNAc
# In short: as §1
# [26] = target: GlcNAc(b1-3)Gal(b1-4)GlcNAc(b1-3)Gal(b1-4)GlcNAc(b1-3)Gal(b1-4)GlcNAc(b1-2)Man(a1-3)[GlcNAc(b1-3)Gal(b1-4)GlcNAc(b1-3)Gal(b1-4)GlcNAc(b1-3)Gal(b1-4)GlcNAc(b1-2)Man(a1-6)]Man(b1-4)GlcNAc(b1-4)[Fuc(a1-6)]GlcNAc
# In short: as §1
# [27] = target: GlcNAc(b1-3)Gal(b1-4)GlcNAc(b1-3)Gal(b1-4)GlcNAc(b1-3)Gal(b1-4)GlcNAc(b1-2)[GlcNAc(b1-3)Gal(b1-4)GlcNAc(b1-3)Gal(b1-4)GlcNAc(b1-3)Gal(b1-4)GlcNAc(b1-6)]Man(a1-6)[GlcNAc(b1-3)Gal(b1-4)GlcNAc(b1-3)Gal(b1-4)GlcNAc(b1-3)Gal(b1-4)GlcNAc(b1-2)Man(a1-3)]Man(b1-4)GlcNAc(b1-4)[Fuc(a1-6)]GlcNAc
# In short: as §1
# [28] = target: GlcNAc(b1-3)Gal(b1-4)GlcNAc(b1-3)Gal(b1-4)GlcNAc(b1-3)Gal(b1-4)GlcNAc(b1-3)Gal(b1-4)GlcNAc(b1-2)Man(a1-3)[GlcNAc(b1-3)Gal(b1-4)GlcNAc(b1-3)Gal(b1-4)GlcNAc(b1-3)Gal(b1-4)GlcNAc(b1-3)Gal(b1-4)GlcNAc(b1-2)Man(a1-6)]Man(b1-4)GlcNAc(b1-4)GlcNAc
# In short: as §1
# [29] = target: GlcNAc(b1-3)Gal(b1-4)GlcNAc(b1-3)Gal(b1-4)GlcNAc(b1-3)Gal(b1-4)GlcNAc(b1-3)Gal(b1-4)GlcNAc(b1-2)Man(a1-3)[GlcNAc(b1-3)Gal(b1-4)GlcNAc(b1-3)Gal(b1-4)GlcNAc(b1-3)Gal(b1-4)GlcNAc(b1-3)Gal(b1-4)GlcNAc(b1-2)Man(a1-6)]Man(b1-4)GlcNAc(b1-4)[Fuc(a1-6)]GlcNAc
# In short: as §1
# [30] = target: GlcNAc(b1-3)Gal(b1-4)GlcNAc(b1-3)Gal(b1-4)GlcNAc(b1-3)Gal(b1-4)GlcNAc(b1-3)Gal(b1-4)GlcNAc(b1-2)[GlcNAc(b1-3)Gal(b1-4)GlcNAc(b1-3)Gal(b1-4)GlcNAc(b1-3)Gal(b1-4)GlcNAc(b1-3)Gal(b1-4)GlcNAc(b1-6)]Man(a1-6)[GlcNAc(b1-3)Gal(b1-4)GlcNAc(b1-3)Gal(b1-4)GlcNAc(b1-3)Gal(b1-4)GlcNAc(b1-3)Gal(b1-4)GlcNAc(b1-2)Man(a1-3)]Man(b1-4)GlcNAc(b1-4)[Fuc(a1-6)]GlcNAc
# In short: as §1
binder,measurement,setting,value
B1,glycan array binding signal (z-score),[1],-0.319
same,glycan array binding signal (z-score),[2],0.084
same,glycan array binding signal (z-score),[3],0.756
same,glycan array binding signal (z-score),[4],-0.906
same,glycan array binding signal (z-score),[5],0.753
same,glycan array binding signal (z-score),[6],0.532
same,glycan array binding signal (z-score),[7],-0.934
same,glycan array binding signal (z-score),[8],-1.14
same,glycan array binding signal (z-score),[9],-0.043
same,glycan array binding signal (z-score),[10],-0.024
same,glycan array binding signal (z-score),[11],-0.931
same,glycan array binding signal (z-score),[12],-0.474
same,glycan array binding signal (z-score),[13],0.655
same,glycan array binding signal (z-score),[14],0.336
same,glycan array binding signal (z-score),[15],1.01
same,glycan array binding signal (z-score),[16],-1.35
same,glycan array binding signal (z-score),[17],-0.866
same,glycan array binding signal (z-score),[18],0.029
same,glycan array binding signal (z-score),[19],-0.556
same,glycan array binding signal (z-score),[20],1.36
same,glycan array binding signal (z-score),[21],-0.812
same,glycan array binding signal (z-score),[22],0.82
same,glycan array binding signal (z-score),[23],1.85
same,glycan array binding signal (z-score),[24],-1.38
same,glycan array binding signal (z-score),[25],-0.119
same,glycan array binding signal (z-score),[26],-0.855
same,glycan array binding signal (z-score),[27],-0.01
same,glycan array binding signal (z-score),[28],0.209
same,glycan array binding signal (z-score),[29],-0.266
same,glycan array binding signal (z-score),[30],0.345

# For convenience, some entries already given:
binder,measurement,setting,value
B1,glycan array binding signal (z-score),[21],-0.812
same,glycan array binding signal (z-score),[22],0.82
